Paper PMC5216914
No constants are given. Whether binding was seen depends on the method and setting. In cells and extracts the contact can be indirect. Some binding calls cover weakened binding; strength is not graded here.

By UniProt entry, the sequences of proteins in these tests, tags left out.
UniProt Q9JLM9: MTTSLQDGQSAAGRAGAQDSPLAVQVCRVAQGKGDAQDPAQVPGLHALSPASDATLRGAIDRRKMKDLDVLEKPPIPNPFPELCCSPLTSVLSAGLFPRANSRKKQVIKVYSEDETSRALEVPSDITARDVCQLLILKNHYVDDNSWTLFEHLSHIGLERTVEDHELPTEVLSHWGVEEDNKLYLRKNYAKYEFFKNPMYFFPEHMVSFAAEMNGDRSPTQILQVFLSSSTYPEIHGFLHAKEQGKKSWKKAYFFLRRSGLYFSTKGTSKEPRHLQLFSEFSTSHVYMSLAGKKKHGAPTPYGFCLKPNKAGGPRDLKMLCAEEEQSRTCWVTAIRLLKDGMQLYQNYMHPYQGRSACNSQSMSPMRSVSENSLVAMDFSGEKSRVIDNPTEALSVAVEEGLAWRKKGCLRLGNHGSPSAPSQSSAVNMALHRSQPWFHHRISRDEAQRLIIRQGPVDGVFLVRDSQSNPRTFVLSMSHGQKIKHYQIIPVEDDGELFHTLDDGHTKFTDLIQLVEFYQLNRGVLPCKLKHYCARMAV

Legend:
[1] = biological target: GST-vSrc-SH2 fusion protein (UniProt P00524); experiment: condition: only retinal lysates of dark-adapted mice; pull-down; GST-vSrc-SH2 fusion protein incubated with retinal lysates of dark-adapted Nrl-/- mice; GST pull-down, blot with anti-Grb14 and anti-GST; only the target purified
[2] = biological target: GST-vSrc-SH2 fusion protein (UniProt P00524); experiment: pull-down; GST-vSrc-SH2 fusion protein incubated with retinal lysates of light-adapted (300 lux, 30 min) Nrl-/- mice; GST pull-down, blot with anti-Grb14 and anti-GST; only the target purified

With “growth factor receptor-bound protein 14 (Grb14) (from UniProt Q9JLM9 1-538)” the binding [1] was “no binding” and the binding [2] was “binds”.
